Experimental data from doi:10.1101/2024.02.24.581848.
No constants are given. Whether binding was seen depends on the method and setting. Binding seen in cells or lysates may run through a third protein. These calls come from enrichment with a bait or labelling near it, and not all partners need be listed.

Biological target: N-terminally FLAG-tagged HigC expressed in the context of the full HigBAC system (E. coli NT1F31)
Experiment: affinity purification with mass spectrometry

B1: gpV major tail protein of phage λvir (wild type), made during infection (protein, UniProt P03733 1-246)
chain: MPVPNPTMPVKGAGTTLWVYKGSGDPYANPLSDVDWSRLAKVKDLTPGELTAESYDDSYLDDEDADWTATGQGQKSAGDTSFTLAWMPGEQGQQALLAWFNEGDTRAYKIRFPNGTVDVFRGWVSSIGKAVTAKEVITRTVKVTNVGRPSMAEDRSTVTAATGMTVTPASTSVVKGQSTTLTVAFQPEGVTDKSFRAVSADKTKATVSVSGMTITVNGVAAGKVNIPVVSGNGEFAAVAEITVTAS
binding: binds
